Measurements reported in PubChem BioAssay AID1259405 (NCATS, 2018)
Purpose: 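Silenced genes that increase secreted GFP made by CHO cells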 (primary screen). Cells: Chinese hamster CHO-K1 ovary cells with stable secreted eGFP expression. Reagents: single siRNA against mouse genes, 0.8 pmol siRNA per well (2 µl of 400 nM stock). Duration: 3 days. Detection: 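Percent of the per-plate non-targeting control median for intracellular GFP per well by laser scanning cytometry and for cell viability by ATP luminescence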. Direction: GFP, % of control: higher = more GFP per well, higher productivity; viability (ATP), % of control: higher = more viable cells (more ATP). Rule for the call: 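Called active when intracellular GFP, relative to negative control, is at or above 120%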.
Shown is an unselected part of about 50,000 deposited reagents. Of all reagents, about 4,000 (8%) are marked active. 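Mouse siRNA library applied to hamster cells; one well for each siRNA.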 The numbers tell different reagents against one gene apart.

target gene	reagent no.	GFP, % of control	viability (ATP), % of control	call
Ppm1f	1	87.1	75.6	inactive
Ppm1f	2	78.6	80.2	inactive
Ppm1f	3	99.1	80.5	inactive
Dynlt2a1	1	107	96.7	inactive
Dynlt2a1	2	105	85.8	inactive
Dynlt2a1	3	144	86.1	active
Nherf2	1	103	120	inactive
Nherf2	2	121	89.6	active
Dcaf8	1	49.1	77.6	inactive
Dcaf8	2	76.2	85	inactive
Dcaf8	3	68.4	71.7	inactive

Part of the list above, reduced to “GFP, % of control”.
Ppm1f #3 = 99.1
Dynlt2a1 #1 = 107
Dynlt2a1 #2 = 105
Dynlt2a1 #3 = 144
Nherf2 #1 = 103

More records:
target gene	reagent no.	GFP, % of control	viability (ATP), % of control	call
9530056K15Rik	1	79.1	51.1	inactive
9530056K15Rik	2	96.8	60.6	inactive
9530056K15Rik	3	70.1	76.6	inactive
Rbsn	1	78	68.4	inactive
Rbsn	2	76.7	79.9	inactive
Rbsn	3	97.7	85.9	inactive
Art3	1	105	93.1	inactive
Art3	2	88.3	133	inactive
Art3	3	118	115	inactive
Sult4a1	1	38.6	43.8	inactive
Sult4a1	2	67.4	121	inactive
Sult4a1	3	86.8	105	inactive
Map7d3	1	37.2	50	inactive
Map7d3	2	59.6	85.8	inactive
Map7d3	3	43.9	63.5	inactive
Dnmbp	1	66.4	95.5	inactive
Dnmbp	2	117	99.2	inactive
Dnmbp	3	65.6	77.5	inactive
Ahi1	1	99.2	67.8	inactive
Ahi1	2	87.8	80.8	inactive
Ahi1	3	60	78.4	inactive
Cpne3	1	84.5	107	inactive
Cpne3	2	44.9	53.8	inactive
